Earlier results, collected in patent US8143236B2, “Chemoprotective methods” (BioNumerik Pharmaceuticals, Inc., priority 2006, dated 2012).

Conditions: in vitro; cited from earlier work

**Q.** For `O=S(=O)([O-])CCSSCCS(=O)(=O)[O-].[Na+].[Na+]` [Tavocept™, disodium 2,2′-dithio-bis-ethane sulfonate], which “direct reaction with paclitaxel” value is on record?
**A.** does not directly react

**Q.** Which “direct reaction with paclitaxel” value does the source give for `O=S(=O)(O)CCS` [mesna, 2-mercapto ethane sulfonate sodium, reference compound] here?
**A.** does not directly react
